Source: paper doi:10.1101/281857

Sequences of proteins named here, by UniProt entry; tags and fusion partners are left off.
UniProt Q15397: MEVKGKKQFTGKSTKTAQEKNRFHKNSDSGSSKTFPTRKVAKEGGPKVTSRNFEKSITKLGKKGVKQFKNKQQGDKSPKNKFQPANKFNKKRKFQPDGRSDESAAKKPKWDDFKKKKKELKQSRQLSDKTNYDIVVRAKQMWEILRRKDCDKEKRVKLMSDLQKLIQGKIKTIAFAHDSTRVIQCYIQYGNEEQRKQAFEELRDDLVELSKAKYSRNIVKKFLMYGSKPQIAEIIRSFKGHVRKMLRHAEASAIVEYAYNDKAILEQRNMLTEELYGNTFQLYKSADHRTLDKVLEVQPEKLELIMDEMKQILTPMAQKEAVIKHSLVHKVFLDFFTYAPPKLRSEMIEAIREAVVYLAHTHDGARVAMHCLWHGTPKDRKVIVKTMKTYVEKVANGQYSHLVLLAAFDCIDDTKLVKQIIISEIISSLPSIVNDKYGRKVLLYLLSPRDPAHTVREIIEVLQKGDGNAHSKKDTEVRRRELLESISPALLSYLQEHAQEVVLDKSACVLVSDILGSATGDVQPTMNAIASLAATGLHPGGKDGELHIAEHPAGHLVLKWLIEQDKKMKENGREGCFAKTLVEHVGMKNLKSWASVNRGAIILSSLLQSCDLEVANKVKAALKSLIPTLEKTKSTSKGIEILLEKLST
UniProt P06748: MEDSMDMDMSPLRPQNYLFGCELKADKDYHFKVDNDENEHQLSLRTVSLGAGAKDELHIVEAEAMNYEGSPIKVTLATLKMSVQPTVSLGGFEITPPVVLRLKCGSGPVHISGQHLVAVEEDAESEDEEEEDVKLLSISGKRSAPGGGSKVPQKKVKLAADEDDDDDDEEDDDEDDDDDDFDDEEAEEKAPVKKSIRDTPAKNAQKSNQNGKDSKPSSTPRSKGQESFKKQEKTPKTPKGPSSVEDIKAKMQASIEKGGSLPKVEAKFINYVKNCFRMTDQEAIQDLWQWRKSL

Molecular target: Puf-A (bait of the immunoprecipitation for mass spectrometry) (human) (UniProt Q15397)
Test: affinity purification with mass spectrometry

binding: binds
Substance: endogenous NPM1 (from UniProt P06748 1-294)

Results are given in words; binding and its absence hold for the method and conditions named. Binding seen in cells or lysates may run through a third protein. These calls come from enrichment with a bait or labelling near it, and not all partners need be listed.
